Results on 15 targets are retold here after the supplement of paper PMC11006884.

By UniProt entry, the sequences of proteins in these tests, tags left out. Where a name states a change or a piece, a line headed by the entry shows the natural chain unless it says otherwise.
UniProt P49642: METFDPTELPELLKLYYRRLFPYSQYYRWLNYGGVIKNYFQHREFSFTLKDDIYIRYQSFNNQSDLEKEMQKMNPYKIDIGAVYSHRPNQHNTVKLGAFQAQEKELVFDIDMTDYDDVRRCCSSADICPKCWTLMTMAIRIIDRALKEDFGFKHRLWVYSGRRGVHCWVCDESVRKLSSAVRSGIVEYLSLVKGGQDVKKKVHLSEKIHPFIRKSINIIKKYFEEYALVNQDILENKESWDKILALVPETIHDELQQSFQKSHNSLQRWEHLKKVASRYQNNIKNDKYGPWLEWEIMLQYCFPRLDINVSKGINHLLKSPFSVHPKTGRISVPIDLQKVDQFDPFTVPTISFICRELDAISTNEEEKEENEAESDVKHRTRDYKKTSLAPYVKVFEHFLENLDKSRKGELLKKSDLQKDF
UniProt P51530: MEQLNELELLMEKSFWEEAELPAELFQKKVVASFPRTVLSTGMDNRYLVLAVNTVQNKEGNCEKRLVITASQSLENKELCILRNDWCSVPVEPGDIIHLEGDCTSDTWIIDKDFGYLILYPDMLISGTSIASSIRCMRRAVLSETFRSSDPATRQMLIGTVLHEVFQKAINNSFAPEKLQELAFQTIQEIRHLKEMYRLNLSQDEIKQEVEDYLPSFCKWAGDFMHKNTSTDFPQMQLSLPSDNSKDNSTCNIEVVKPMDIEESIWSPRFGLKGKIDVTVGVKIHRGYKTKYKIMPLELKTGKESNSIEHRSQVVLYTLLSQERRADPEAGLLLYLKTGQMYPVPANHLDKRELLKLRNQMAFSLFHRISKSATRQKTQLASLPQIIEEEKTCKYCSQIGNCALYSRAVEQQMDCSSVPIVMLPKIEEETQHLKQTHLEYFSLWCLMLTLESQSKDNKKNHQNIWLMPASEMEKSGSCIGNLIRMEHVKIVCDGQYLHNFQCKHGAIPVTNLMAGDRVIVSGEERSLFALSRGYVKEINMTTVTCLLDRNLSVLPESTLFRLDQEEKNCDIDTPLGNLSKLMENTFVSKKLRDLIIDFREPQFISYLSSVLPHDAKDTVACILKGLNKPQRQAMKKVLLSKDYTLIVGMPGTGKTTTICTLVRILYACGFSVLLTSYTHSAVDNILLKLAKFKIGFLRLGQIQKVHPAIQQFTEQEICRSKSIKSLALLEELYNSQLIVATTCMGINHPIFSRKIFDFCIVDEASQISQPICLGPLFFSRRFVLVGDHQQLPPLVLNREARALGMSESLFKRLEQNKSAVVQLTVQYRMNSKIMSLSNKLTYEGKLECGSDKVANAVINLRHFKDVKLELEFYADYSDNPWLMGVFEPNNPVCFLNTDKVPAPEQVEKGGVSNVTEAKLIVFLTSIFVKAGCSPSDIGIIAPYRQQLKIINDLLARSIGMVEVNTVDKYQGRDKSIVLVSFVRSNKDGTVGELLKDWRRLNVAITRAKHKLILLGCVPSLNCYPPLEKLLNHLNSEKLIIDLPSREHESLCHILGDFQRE
UniProt P43246, whole entry, looked up: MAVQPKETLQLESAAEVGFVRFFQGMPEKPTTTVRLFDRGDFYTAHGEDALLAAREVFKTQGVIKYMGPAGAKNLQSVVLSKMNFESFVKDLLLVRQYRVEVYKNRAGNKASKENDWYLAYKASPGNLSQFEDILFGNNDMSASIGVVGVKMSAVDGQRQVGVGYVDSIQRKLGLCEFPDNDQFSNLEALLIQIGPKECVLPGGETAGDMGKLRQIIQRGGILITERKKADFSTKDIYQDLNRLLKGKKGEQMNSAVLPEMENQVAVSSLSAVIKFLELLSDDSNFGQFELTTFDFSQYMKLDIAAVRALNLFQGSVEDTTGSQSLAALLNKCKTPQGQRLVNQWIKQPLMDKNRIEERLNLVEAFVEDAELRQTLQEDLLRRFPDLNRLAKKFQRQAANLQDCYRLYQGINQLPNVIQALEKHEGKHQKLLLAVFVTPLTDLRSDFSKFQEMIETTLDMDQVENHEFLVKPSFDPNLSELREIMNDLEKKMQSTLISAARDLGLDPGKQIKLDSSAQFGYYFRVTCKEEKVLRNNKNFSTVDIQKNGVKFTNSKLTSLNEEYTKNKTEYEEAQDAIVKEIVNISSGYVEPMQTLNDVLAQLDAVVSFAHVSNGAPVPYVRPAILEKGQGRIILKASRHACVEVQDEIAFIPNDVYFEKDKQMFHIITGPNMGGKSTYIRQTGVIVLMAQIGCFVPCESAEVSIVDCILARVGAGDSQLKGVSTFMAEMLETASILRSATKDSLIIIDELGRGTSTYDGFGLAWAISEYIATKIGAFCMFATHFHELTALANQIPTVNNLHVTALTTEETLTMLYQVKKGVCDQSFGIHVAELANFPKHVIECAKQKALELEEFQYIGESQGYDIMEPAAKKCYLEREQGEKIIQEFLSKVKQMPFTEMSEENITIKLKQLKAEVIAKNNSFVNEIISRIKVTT
UniProt P45973, whole entry, looked up: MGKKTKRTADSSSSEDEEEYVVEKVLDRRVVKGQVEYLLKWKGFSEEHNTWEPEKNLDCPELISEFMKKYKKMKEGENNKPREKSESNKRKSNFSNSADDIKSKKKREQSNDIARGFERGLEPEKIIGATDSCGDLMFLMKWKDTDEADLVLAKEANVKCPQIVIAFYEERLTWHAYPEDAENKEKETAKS
UniProt P50991: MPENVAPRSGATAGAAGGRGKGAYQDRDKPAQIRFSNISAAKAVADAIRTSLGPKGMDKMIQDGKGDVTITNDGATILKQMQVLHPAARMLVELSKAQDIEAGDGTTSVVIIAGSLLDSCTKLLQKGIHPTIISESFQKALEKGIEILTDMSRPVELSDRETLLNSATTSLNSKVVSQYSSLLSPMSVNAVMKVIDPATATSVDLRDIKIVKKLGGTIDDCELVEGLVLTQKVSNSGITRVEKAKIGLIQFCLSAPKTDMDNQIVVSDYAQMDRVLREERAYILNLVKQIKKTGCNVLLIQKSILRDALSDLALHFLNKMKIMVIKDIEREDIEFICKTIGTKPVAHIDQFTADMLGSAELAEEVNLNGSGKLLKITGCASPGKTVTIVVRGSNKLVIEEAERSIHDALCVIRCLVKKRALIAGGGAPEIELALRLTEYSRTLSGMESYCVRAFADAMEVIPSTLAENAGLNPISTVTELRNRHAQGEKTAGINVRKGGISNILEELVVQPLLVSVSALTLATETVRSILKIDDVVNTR
UniProt P50579: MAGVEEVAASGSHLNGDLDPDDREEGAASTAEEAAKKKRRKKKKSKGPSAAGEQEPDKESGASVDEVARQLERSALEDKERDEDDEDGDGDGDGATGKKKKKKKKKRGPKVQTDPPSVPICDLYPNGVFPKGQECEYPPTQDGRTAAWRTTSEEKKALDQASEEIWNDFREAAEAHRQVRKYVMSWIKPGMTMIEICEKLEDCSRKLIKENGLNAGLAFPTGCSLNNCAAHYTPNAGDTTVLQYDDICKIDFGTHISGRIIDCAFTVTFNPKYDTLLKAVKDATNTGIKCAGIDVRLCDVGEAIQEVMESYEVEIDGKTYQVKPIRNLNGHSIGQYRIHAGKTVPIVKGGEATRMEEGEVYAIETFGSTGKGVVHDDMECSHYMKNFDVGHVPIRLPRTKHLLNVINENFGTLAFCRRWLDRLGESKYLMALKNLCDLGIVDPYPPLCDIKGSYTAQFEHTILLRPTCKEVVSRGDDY
UniProt P47756, whole entry, looked up: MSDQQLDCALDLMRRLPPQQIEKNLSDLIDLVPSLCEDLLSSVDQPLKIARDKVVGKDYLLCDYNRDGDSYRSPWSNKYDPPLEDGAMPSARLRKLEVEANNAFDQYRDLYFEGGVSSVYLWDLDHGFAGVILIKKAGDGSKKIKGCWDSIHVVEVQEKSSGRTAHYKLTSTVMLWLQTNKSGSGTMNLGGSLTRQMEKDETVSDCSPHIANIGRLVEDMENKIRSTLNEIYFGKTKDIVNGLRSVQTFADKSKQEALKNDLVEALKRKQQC
UniProt P49327, whole entry, looked up: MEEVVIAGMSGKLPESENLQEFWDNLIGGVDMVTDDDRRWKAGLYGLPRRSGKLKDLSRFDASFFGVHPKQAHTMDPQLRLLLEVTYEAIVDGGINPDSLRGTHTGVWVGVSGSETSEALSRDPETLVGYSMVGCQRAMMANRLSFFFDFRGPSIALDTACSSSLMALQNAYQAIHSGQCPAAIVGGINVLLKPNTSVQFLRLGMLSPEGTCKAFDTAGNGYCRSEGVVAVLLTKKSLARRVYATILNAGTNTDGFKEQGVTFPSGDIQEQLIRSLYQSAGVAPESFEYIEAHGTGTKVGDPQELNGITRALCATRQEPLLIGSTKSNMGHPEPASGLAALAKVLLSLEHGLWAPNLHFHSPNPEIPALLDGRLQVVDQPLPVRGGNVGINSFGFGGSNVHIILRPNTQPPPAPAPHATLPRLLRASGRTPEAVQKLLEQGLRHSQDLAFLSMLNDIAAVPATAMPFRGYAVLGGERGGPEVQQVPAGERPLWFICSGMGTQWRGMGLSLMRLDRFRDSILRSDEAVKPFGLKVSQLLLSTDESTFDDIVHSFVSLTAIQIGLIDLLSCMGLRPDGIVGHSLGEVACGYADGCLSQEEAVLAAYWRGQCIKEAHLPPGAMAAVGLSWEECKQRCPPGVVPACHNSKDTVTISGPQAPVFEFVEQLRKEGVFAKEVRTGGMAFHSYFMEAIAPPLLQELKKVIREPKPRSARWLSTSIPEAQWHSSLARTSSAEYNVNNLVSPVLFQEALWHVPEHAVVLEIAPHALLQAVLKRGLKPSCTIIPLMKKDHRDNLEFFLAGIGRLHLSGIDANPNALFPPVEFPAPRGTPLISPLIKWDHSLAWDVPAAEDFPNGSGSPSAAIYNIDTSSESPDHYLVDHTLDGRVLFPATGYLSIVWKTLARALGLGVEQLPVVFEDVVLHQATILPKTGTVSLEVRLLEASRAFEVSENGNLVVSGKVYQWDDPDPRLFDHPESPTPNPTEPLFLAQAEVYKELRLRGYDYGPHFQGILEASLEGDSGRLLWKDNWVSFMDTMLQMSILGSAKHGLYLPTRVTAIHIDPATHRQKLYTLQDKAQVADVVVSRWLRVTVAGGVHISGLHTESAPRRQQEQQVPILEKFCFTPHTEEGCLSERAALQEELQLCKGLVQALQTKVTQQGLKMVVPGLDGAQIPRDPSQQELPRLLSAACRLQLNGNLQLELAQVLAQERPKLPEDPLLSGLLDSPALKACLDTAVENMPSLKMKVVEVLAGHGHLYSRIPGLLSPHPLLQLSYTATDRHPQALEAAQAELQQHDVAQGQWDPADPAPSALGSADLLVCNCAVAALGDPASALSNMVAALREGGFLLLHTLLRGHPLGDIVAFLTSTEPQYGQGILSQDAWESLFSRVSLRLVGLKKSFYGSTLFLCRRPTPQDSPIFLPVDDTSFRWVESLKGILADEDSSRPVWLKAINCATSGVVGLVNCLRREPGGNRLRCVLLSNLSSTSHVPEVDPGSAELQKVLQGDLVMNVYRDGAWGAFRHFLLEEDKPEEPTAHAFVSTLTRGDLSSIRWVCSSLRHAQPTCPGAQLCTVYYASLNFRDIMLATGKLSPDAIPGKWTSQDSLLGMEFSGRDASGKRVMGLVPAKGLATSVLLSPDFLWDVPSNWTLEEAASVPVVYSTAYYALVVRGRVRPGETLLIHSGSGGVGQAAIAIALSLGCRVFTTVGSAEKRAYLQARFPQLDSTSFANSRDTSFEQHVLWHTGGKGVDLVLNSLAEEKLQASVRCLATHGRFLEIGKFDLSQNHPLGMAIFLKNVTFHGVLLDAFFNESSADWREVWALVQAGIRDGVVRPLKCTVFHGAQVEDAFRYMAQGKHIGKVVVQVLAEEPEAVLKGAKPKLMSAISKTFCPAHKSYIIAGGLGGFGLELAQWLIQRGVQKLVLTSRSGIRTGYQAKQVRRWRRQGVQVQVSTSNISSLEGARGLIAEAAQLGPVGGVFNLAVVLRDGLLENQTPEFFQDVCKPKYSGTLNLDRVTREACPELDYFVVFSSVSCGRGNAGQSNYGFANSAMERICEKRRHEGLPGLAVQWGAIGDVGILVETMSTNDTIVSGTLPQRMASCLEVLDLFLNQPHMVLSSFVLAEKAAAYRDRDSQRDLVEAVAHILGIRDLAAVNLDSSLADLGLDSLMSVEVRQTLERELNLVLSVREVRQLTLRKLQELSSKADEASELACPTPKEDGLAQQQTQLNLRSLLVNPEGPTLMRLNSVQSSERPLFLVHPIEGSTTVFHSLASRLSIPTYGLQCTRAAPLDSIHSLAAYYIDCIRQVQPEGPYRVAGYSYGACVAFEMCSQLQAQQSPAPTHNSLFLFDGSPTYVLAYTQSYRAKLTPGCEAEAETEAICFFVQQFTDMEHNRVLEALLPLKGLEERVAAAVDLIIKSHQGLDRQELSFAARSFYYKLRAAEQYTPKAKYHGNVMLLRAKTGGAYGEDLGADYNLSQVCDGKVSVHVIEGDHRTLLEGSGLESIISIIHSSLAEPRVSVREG

Only a part is listed here, and it is no random draw.

Compound in the test: COC(=O)C#Cc1ccccc1 [methyl 3-phenylpropiolate]
The experiment in a line: log2 ratio of iodoacetamide-alkyne labeling of the cysteine site, DMSO over compound (competition); higher = stronger covalent engagement of the cysteine by the compound, active = 1 or more. As to conditions: 500 µM; treatment time 1 h; system: HEK293T cell lysate. The method in brief: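 HEK293T lysate (2 mg/mL) was incubated with electrophile (500 µM) or vehicle for 1 h at ambient temperature and then with iodoacetamide alkyne for 1 h. Labelled proteins were clicked to sCIP-TMT reagents, pooled, digested, enriched on streptavidin and measured by Orbitrap Eclipse LC-MS/MS with FAIMS, with FragPipe quantification. The per-cysteine log2 competition ratio is mean control-channel reporter intensity over mean compound-channel reporter intensity. Across three replicates with duplicate channels, cysteines quantified in only one replicate were excluded.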
With PRIM1 C354 (UniProt P49642), the “log2 ratio of iodoacetamide-alkyne labeling” value (shortened to “log2 ratio”) is inactive: 0.0608.

Take DNA2 C569 (UniProt P51530): the “log2 ratio” value was inactive: 0.558.

Regarding MSH2 C333 (UniProt P43246), the “log2 ratio” value was active: 1.16.

With UniProt P48634_C1821, the “log2 ratio” value was inactive: 0.222.

As to CBX5 C160 (UniProt P45973), the “log2 ratio” value is inactive: 0.106.

Turning to CCT4 C379 (UniProt P50991), the “log2 ratio” value is inactive: 0.117.

For METAP2 C135 (UniProt P50579), the “log2 ratio” value is inactive: 0.274.

Regarding RANBP2 C581 (UniProt P49792), the “log2 ratio” value is inactive: 0.41.

With CAPZB C36 (UniProt P47756), the “log2 ratio” value was inactive: 0.0452.

For UTRN C3023 (UniProt P46939), the “log2 ratio” value is inactive: 0.689.

With PEX5 C11 (UniProt P50542), the “log2 ratio” value is inactive: 0.204.

Regarding CAPZB C8 (UniProt P47756), the “log2 ratio” value was inactive: -0.00606.

Regarding RPL28 C13 (UniProt P46779), the “log2 ratio” value was inactive: 0.318.

For the target MAP1B C73 (UniProt P46821), the “log2 ratio” value was inactive: 0.173.

Regarding FASN C1992 (UniProt P49327), the “log2 ratio” value was inactive: 0.0894.
